Measurements: patent US20090300800A1, “D-Amino Acid a Selectable Marker for Barley (Hordeum Vulgare L.) Transformation” (BASF Plant Science GmbH, priority 2005, published 2009)
Some results were stated once for a whole list of compounds, not compound by compound.

Test system: immature embryos / embryogenic callus from Golden Promise
Assay: Agrobacterium-mediated barley transformation with pRLM167 or pRLM205 (dsdA, dao1, PAT), PAB media, selection on D-Serine or bialaphos
Format: cell-based, barley (Hordeum vulgare L.)
Settings: 5 mM D-serine or 5 mg/l bialaphos, within 8 weeks

SMILES: N[C@H](CO)C(=O)O [D-serine]
- frequency of selected tolerant transgenic callus lines: 1.2-11.3%
